Counter-ions that a name gives are not always drawn. The list shows a part of the results. This data set is noisy: repeats of one test often differ as much as different tests do.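 A first-round screen of about ten thousand compounds sought those raising reporter output, using human embryonic kidney cells briefly transfected with a plasmid carrying a Renilla luciferase gene driven by the HSV-TK promoter.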

This assay deals with HEK 293FT. As to the kind of experiment: log relative Renilla luciferase luminescence (reporter expression vs reference, reference not stated) (log (base not stated)); higher = higher recombinant reporter expression. As to conditions: 10 µM; time after transfection 48 h.
With `O=C(O[C@@H]1Cc2c(O)cc(O)cc2O[C@@H]1c1ccc(O)c(O)c1)c1cc(O)c(O)c(O)c1` [epicatechin monogallate], the log is 0.0626.

Take `OC(c1cc(C(F)(F)F)nc2c(C(F)(F)F)cccc12)C1CCCCN1` (stereo unspecified) [mefloquine]: the log was -0.0681.

On to `CNCCCC12CCC(c3ccccc31)c1ccccc12` [maprotiline hydrochloride], for which the log turned out to be 0.0992.

In the case of `CC[C@H]1OC(=O)C[C@@H](O)[C@H](C)[C@@H](O[C@@H]2O[C@H](C)[C@@H](O)[C@H](N(C)C)[C@H]2O)[C@@H](CCN2C[C@H](C)C[C@H](C)C2)C[C@@H](C)C(=O)/C=C/C(C)=C/[C@@H]1CO[C@@H]1O[C@H](C)[C@@H](O)[C@@H](OC)[C@H]1OC` [tilmicosin], the log is -0.105.

Take `Cc1coc2c1C(=O)C(=O)c1c-2ccc2c1CCCC2(C)C` [tanshinone iia]: the log is -0.00986.

As to `C[C@]12C=CC(=O)C=C1CC[C@H]1[C@@H]3C[C@@H](O)[C@](O)(C(=O)CO)[C@@]3(C)C[C@H](O)[C@@]12F` [triamcinolone], the log was -0.337.

For the molecule `CCN(CC)C(=O)/C(C#N)=C/c1cc(O)c(O)c([N+](=O)[O-])c1` [entacapone], the log came to 0.0992.

Regarding `C[C@@H]1O[C@@H](OC[C@H]2O[C@@H](Oc3c(-c4ccc(OCCO)c(OCCO)c4)oc4cc(OCCO)cc(O)c4c3=O)[C@H](O)[C@@H](O)[C@@H]2O)[C@H](O)[C@H](O)[C@H]1O` [troxerutin], the log turned out to be 0.0569.

For the molecule `C[C@@H](O)[C@H]1C(=O)N2C(C(=O)O)=C(S[C@@H]3CN[C@H](C(=O)N(C)C)C3)[C@H](C)[C@H]12` [meropenem], the log amounted to 0.02.

Take `COc1ccc(C(=O)O)c(O)c1OC` [2-hydroxy-3,4-dimethoxybenzoic acid]: the log was -0.0363.

In the case of `Cc1cc(C)cc(OCC2CNC(=O)O2)c1` (stereo unspecified) [metaxalone], the log was 0.16.

In the case of `CC(=O)O[C@H]1C[C@@H]2CC[C@@H]3[C@H](CC[C@@]4(C)[C@H]3C[C@H]([N+]3(C)CCCCC3)[C@@H]4OC(C)=O)[C@@]2(C)C[C@@H]1N1CCCCC1` [vecuronium bromide], the log is -0.0526.

With `CCOC(=O)c1c(C)cc(O)c(C=O)c1O` [haematommic acid, ethyl ester], the log is -0.158.

For the molecule `CCN(CC)CCOC(=O)c1ccc(N)cc1` [procaine hydrochloride], the log is -0.0145.

Turning to `CC[C@H](C)C(=O)O[C@H]1C[C@@H](C)C=C2C=C[C@H](C)[C@H](CC[C@@H]3C[C@@H](O)CC(=O)O3)[C@H]21` [lovastatin], the log stood at 0.104.

Regarding `Cc1c(C)c2c(c(C)c1O)CCC(C)(C(=O)O)O2` (stereo unspecified) [trolox], the log was -0.064.

`COc1ccc(-c2coc3c4c(c(CC=C(C)C)c(O)c3c2=O)OC(C)(C)C=C4)cc1` [osajin 4'-methyl ether]: the log was -0.00923.

With `Oc1cccc2[nH]ccc12` [4-hydroxyindole], the log is -0.00923.

Regarding `CC(C)C[C@H](N)C(=O)N[C@@H](C)C(=O)O` [l-leucyl-l-alanine], the log amounted to 0.0623.

Take `CC(=O)N[C@@H](CS)C(=O)O` [acetylcysteine]: the log stood at 0.0139.

As to `CC(=O)O[C@H]1C[C@@]2(C)[C@@H](C[C@@H](O)[C@H]3[C@@]4(C)CC[C@@H](O)[C@@H](C)[C@@H]4CC[C@@]32C)/C1=C(\CCC=C(C)C)C(=O)O` [fusidic acid], the log stood at 0.224.

As to `COc1cccc(-c2cc(=O)c3cc(OC)ccc3o2)c1` [6,3'-dimethoxyflavone], the log stood at 0.191.

For `COc1cc(C2Oc3cc([C@H]4Oc5cc(O)cc(O)c5C(=O)[C@@H]4O)ccc3OC2CO)ccc1O` (stereo partly specified) [silibinin], the log is -0.116.

With `O=c1cc(-c2ccccc2)oc2cc(O)c(O)c(O)c12` [baicalein], the log is 0.0136.

As for `CC(C)CCCC(C)N` (stereo unspecified) [octodrine], the log is -0.0665.

Turning to `NCCCC(O)(P(=O)(O)O)P(=O)(O)O` [alendronate sodium], the log was found to be 0.0299.

For `CNC[C@H](O)[C@@H](O)[C@H](O)[C@H](O)CO` [meglumine], the log was -0.136.

Turning to `Nc1ccc(S(=O)(=O)Nc2cnc3ccccc3n2)cc1` [sulfaquinoxaline sodium], the log worked out at 0.104.

In the case of `COc1ccc(C[C@H](N)C(=O)N[C@H]2[C@@H](O)[C@H](n3cnc4c(N(C)C)ncnc43)O[C@@H]2CO)cc1` [puromycin dihydrochloride], the log is -0.333.

In the case of `CCCCC/C=C/CCC(=O)N[C@H]1[C@H](Oc2c3cc4cc2Oc2ccc(cc2Cl)[C@@H](O[C@@H]2O[C@H](CO)[C@@H](O)[C@H](O)[C@H]2NC(C)=O)[C@@H]2NC(=O)[C@H](NC(=O)[C@@H]4NC(=O)[C@H]4NC(=O)C(Cc5ccc(c(Cl)c5)O3)NC(=O)[C@H](N)c3ccc(O)c(c3)Oc3cc(O)cc4c3)c3ccc(O)c(c3)-c3c(OC4O[C@H](CO)[C@@H](O)[C@H](O)[C@@H]4O)cc(O)cc3[C@@H](C(=O)O)NC2=O)O[C@H](CO)[C@@H](O)[C@@H]1O` (stereo partly specified) [teicoplanin [a(2-1) shown]], the log was -0.0896.

In the case of `[O-][n+]1cccc(CO)c1` [mepiroxol], the log is 0.0256.

Turning to `Cc1ccnc(NS(=O)(=O)c2ccc(N)cc2)n1` [sulfamerazine], the log is 0.14.

Turning to `CC(C)n1c(/C=C/C(O)CC(O)CC(=O)O)c(-c2ccc(F)cc2)c2ccccc21` (stereo unspecified) [fluvastatin], the log is -0.0585.

As to `O=c1ccn([C@@H]2O[C@H](CO)[C@@H](O)[C@H]2O)c(=O)[nH]1` [uridine], the log was -0.032.

On to `CCCCNc1cc(C(=O)O)cc(S(N)(=O)=O)c1Oc1ccccc1` [bumetanide], for which the log turned out to be 0.126.

With `C[C@H](Cn1cnc2c(N)ncnc21)OCP(=O)(O)O` [tenofovir], the log is 0.109.

For the molecule `CC(=O)Oc1cc2c(c(C)c1OC(C)=O)CC=C1[C@@]2(C)CC[C@@]2(C)C3C[C@](C)(C(=O)O)CC[C@]3(C)CC[C@]12C` (stereo partly specified) [dihydrocelastryl diacetate], the log was -0.168.

In the case of `CC(=O)Oc1ccccc1C(=O)Oc1ccccc1C(=O)O` [diplosalsalate], the log worked out at 0.0419.

With `COC(=O)C1=C(C)NC(C)=C(C(=O)OC)C1c1ccccc1[N+](=O)[O-]` [nifedipine], the log is -0.171.

Turning to `CCC(=O)O[C@H](CC(=O)O)C[N+](C)(C)C` [levocarnitine propionate hydrochloride], the log stood at 0.0918.

Consider `Clc1ccccc1CN1CCc2sccc2C1` [ticlopidine hydrochloride], for which the log turned out to be 0.0982.

These data come from the supplement of paper PMC7024190.
